Results published in the supplement of paper PMC8728848.
The list shows a part of the results.

Legend:
Test in all cases: glycan array binding signal (z-score within array); higher = stronger binding
Conditions in all cases: glycan notation: IUPAC condensed, linker removed
[1] = biological target: Neu5Ac(a2-6)Gal(b1-4)GlcNAc(b1-2)Man(a1-3)[GlcNAc(b1-4)][Neu5Ac(a2-6)Gal(b1-4)GlcNAc(b1-2)Man(a1-6)]Man(b1-4)GlcNAc(b1-4)GlcNAc
Outline: (§1)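 The binding signal is a Z-score computed within each array. Data were drawn from 3228 arrays in the Consortium for Functional Glycomics database, restricted to those with a known protein sequence. Scores were averaged over arrays of the same protein sequence at different concentrations or buffers, and over linkers, and negative values can be taken as non-binding.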

[2] = biological target: Neu5Ac(a2-6)Gal(b1-4)GlcNAc(b1-2)Man(a1-3)[Man(a1-6)]Man(b1-4)GlcNAc(b1-4)GlcNAc
Outline: as §1

[3] = biological target: Neu5Ac(a2-6)Gal(b1-4)GlcNAc(b1-2)Man(a1-3)[Neu5Ac(a2-3)Gal(b1-4)GlcNAc(b1-2)Man(a1-6)]Man(b1-4)GlcNAc(b1-4)GlcNAc
Outline: as §1

[4] = biological target: Neu5Ac(a2-6)Gal(b1-4)GlcNAc(b1-2)Man(a1-3)[Neu5Ac(a2-6)Gal(b1-4)GlcNAc(b1-2)Man(a1-6)]Man(b1-4)GlcNAc(b1-4)GlcNAc
Outline: as §1

[5] = biological target: Neu5Ac(a2-6)Gal(b1-4)GlcNAc(b1-2)Man(a1-3)[Neu5Ac(a2-6)Gal(b1-4)GlcNAc(b1-2)Man(a1-6)]Man(b1-4)GlcNAc(b1-4)[Fuc(a1-6)]GlcNAc
Outline: as §1

[6] = biological target: Neu5Ac(a2-6)Gal(b1-4)GlcNAc(b1-2)Man(a1-6)Man(b1-4)GlcNAc(b1-4)GlcNAc
Outline: as §1

[7] = biological target: Neu5Ac(a2-6)Gal(b1-4)GlcNAc(b1-2)Man(a1-6)[Gal(b1-4)GlcNAc(b1-2)Man(a1-3)]Man(b1-4)GlcNAc(b1-4)GlcNAc
Outline: as §1

[8] = biological target: Neu5Ac(a2-6)Gal(b1-4)GlcNAc(b1-2)Man(a1-6)[GlcNAc(b1-2)Man(a1-3)]Man(b1-4)GlcNAc(b1-4)GlcNAc
Outline: as §1

[9] = biological target: Neu5Ac(a2-6)Gal(b1-4)GlcNAc(b1-2)Man(a1-6)[Man(a1-3)]Man(b1-4)GlcNAc(b1-4)GlcNAc
Outline: as §1

[10] = biological target: Neu5Ac(a2-6)Gal(b1-4)GlcNAc(b1-2)[Neu5Ac(a2-6)Gal(b1-4)GlcNAc(b1-4)]Man(a1-3)[GlcNAc(b1-4)][Neu5Ac(a2-6)Gal(b1-4)GlcNAc(b1-2)[Neu5Ac(a2-6)Gal(b1-4)GlcNAc(b1-6)]Man(a1-6)]Man(b1-4)GlcNAc(b1-4)GlcNAc
Outline: as §1

[11] = biological target: Neu5Ac(a2-6)Gal(b1-4)GlcNAc(b1-2)[Neu5Ac(a2-6)Gal(b1-4)GlcNAc(b1-4)]Man(a1-3)[GlcNAc(b1-4)][Neu5Ac(a2-6)Gal(b1-4)GlcNAc(b1-4)Man(a1-6)]Man(b1-4)GlcNAc(b1-4)GlcNAc
Outline: as §1

[12] = biological target: Neu5Ac(a2-6)Gal(b1-4)GlcNAc(b1-2)[Neu5Ac(a2-6)Gal(b1-4)GlcNAc(b1-6)]Man(a1-6)[Neu5Ac(a2-6)Gal(b1-4)GlcNAc(b1-2)Man(a1-3)][GlcNAc(b1-4)]Man(b1-4)GlcNAc(b1-4)GlcNAc
Outline: as §1

[13] = biological target: Neu5Ac(a2-6)Gal(b1-4)GlcNAc(b1-3)Gal(b1-3)GlcNAc
Outline: as §1

[14] = biological target: Neu5Ac(a2-6)Gal(b1-4)GlcNAc(b1-3)Gal(b1-4)GlcNAc
Outline: as §1

[15] = biological target: Neu5Ac(a2-6)Gal(b1-4)GlcNAc(b1-3)Gal(b1-4)GlcNAc(b1-2)Man(a1-3)[Neu5Ac(a2-6)Gal(b1-4)GlcNAc(b1-3)Gal(b1-4)GlcNAc(b1-2)Man(a1-6)]GalNAc
Outline: as §1

[16] = biological target: Neu5Ac(a2-6)Gal(b1-4)GlcNAc(b1-3)Gal(b1-4)GlcNAc(b1-3)Gal(b1-4)GlcNAc
Outline: as §1

[17] = biological target: Neu5Ac(a2-6)Gal(b1-4)GlcNAc(b1-3)Gal(b1-4)GlcNAc(b1-3)Gal(b1-4)GlcNAc(b1-2)Man(a1-3)[Neu5Ac(a2-6)Gal(b1-4)GlcNAc(b1-3)Gal(b1-4)GlcNAc(b1-3)Gal(b1-4)GlcNAc(b1-2)Man(a1-6)]GalNAc
Outline: as §1

[18] = biological target: Neu5Ac(a2-6)Gal(b1-4)GlcNAc(b1-3)Gal(b1-4)GlcNAc(b1-3)GalNAc
Outline: as §1

[19] = biological target: Neu5Ac(a2-6)Gal(b1-4)GlcNAc(b1-3)Gal(b1-4)GlcNAc(b1-3)[Neu5Ac(a2-6)Gal(b1-4)GlcNAc(b1-3)Gal(b1-4)GlcNAc(b1-6)]GalNAc
Outline: as §1

[20] = biological target: Neu5Ac(a2-6)Gal(b1-4)GlcNAc(b1-3)Gal(b1-4)GlcNAc(b1-6)[Gal(b1-3)]GalNAc
Outline: as §1

[21] = biological target: Neu5Ac(a2-6)Gal(b1-4)GlcNAc(b1-3)Gal(b1-4)[Fuc(a1-3)]GlcNAc(b1-3)Gal(b1-4)[Fuc(a1-3)]GlcNAc
Outline: as §1

[22] = biological target: Neu5Ac(a2-6)Gal(b1-4)GlcNAc(b1-3)GalNAc
Outline: as §1

[23] = biological target: Neu5Ac(a2-6)Gal(b1-4)GlcNAc(b1-3)[Neu5Ac(a2-6)Gal(b1-4)GlcNAc(b1-6)]GalNAc
Outline: as §1

[24] = biological target: Neu5Ac(a2-6)Gal(b1-4)GlcNAc(b1-6)GalNAc
Outline: as §1

[25] = biological target: Neu5Ac(a2-6)Gal(b1-4)GlcNAc(b1-6)[Gal(b1-3)GlcNAc(b1-3)]Gal(b1-4)Glc
Outline: as §1

[26] = biological target: Neu5Ac(a2-6)Gal(b1-4)GlcNAc(b1-6)[Gal(b1-3)]GalNAc
Outline: as §1

[27] = biological target: Neu5Ac(a2-6)Gal(b1-4)GlcNAc6S
Outline: as §1

Neu5Ac(a2-6)GalNAc = biological target: Neu5Ac(a2-6)GalNAc
Outline: as §1

[28] = biological target: Neu5Ac(a2-6)GalNAc(b1-4)GlcNAc
Outline: as §1

[29] = biological target: Neu5Ac(a2-6)GalNAc(b1-4)GlcNAc6S
Outline: as §1

[30] = biological target: Neu5Ac(a2-6)GlcNAc(b1-4)GlcNAc
Outline: as §1

B1: AT1G80310(18) (Arabidopsis thaliana), Q0WP36 (protein)
chain: METTTTPLLPGDRSRCGWLRRRLRLKNPLSSELSGAVGDLGTFIPIVLTLTLVSNLDLSTTLIFTGFYNIATGLLFDIPMPVQPMKSIAAVAVSESPHLTPSQIAAAGASTAATLLLLGATGAMSFLYNIIPLPVVRGVQLSQGLQFAFTAIKYVRFNYDTATLKPSSSPRIWLGLDGLILALAALLFIILSTGSGNDREAEDGDLAETSSNESQSRRRRLRLLSSIPSALIVFALGLVLCFIRDPSIFKDLKFGPSKFHILRISWDDWKIGFLRAAIPQIPLSVLNSVIAVCKLSNDLFDKELSATTVSISVGVMNLIGCWFGAMPVCHGAGGLAGQYRFGARSGLSVIFLGIGKLIVGLVFGNSFVRILSQFPIGILGVLLLFAGIELAMASKDMNSKEDSFIMLVCAAVSMTGSSAALGFGCGVVLYLLLKLRTLDCSSVTLFSRSSDESQVDSEAAPRDV
[1]
  glycan array binding signal (z-score): 0.246
[2]
  glycan array binding signal (z-score): 2.26
[3]
  glycan array binding signal (z-score): -0.312
[4]
  glycan array binding signal (z-score): -0.306
[5]
  glycan array binding signal (z-score): -0.378
[6]
  glycan array binding signal (z-score): -0.686
[7]
  glycan array binding signal (z-score): -0.754
[8]
  glycan array binding signal (z-score): -0.954
[9]
  glycan array binding signal (z-score): -0.892
[10]
  glycan array binding signal (z-score): -0.922
[11]
  glycan array binding signal (z-score): -0.845
[12]
  glycan array binding signal (z-score): -0.795
[13]
  glycan array binding signal (z-score): -0.646
[14]
  glycan array binding signal (z-score): -0.874
[15]
  glycan array binding signal (z-score): -0.809
[16]
  glycan array binding signal (z-score): -0.196
[17]
  glycan array binding signal (z-score): -0.857
[18]
  glycan array binding signal (z-score): -0.981
[19]
  glycan array binding signal (z-score): -1.02
[20]
  glycan array binding signal (z-score): -0.653
[21]
  glycan array binding signal (z-score): -0.03
[22]
  glycan array binding signal (z-score): 2.63
[23]
  glycan array binding signal (z-score): -0.793
[24]
  glycan array binding signal (z-score): 0.866
[25]
  glycan array binding signal (z-score): 0.556
[26]
  glycan array binding signal (z-score): -0.502
[27]
  glycan array binding signal (z-score): 0.953
Neu5Ac(a2-6)GalNAc
  glycan array binding signal (z-score): -0.661
[28]
  glycan array binding signal (z-score): -0.373
[29]
  glycan array binding signal (z-score): -0.543
[30]
  glycan array binding signal (z-score): -0.855
